Data reported in patent US7834237.
No constants are given. Whether binding was seen depends on the method and setting. Some results given as binding are weak or reduced against the parent protein; the word gives no strength.

Sequences of proteins named here, by UniProt entry; tags and fusion partners are left off. A change or cut given only in a name is not applied to a line headed by its entry. A line that says so, or that is headed by a name, gives the form on record, which may keep a tag or linker.
endogenous mouse tau (P10637, form named): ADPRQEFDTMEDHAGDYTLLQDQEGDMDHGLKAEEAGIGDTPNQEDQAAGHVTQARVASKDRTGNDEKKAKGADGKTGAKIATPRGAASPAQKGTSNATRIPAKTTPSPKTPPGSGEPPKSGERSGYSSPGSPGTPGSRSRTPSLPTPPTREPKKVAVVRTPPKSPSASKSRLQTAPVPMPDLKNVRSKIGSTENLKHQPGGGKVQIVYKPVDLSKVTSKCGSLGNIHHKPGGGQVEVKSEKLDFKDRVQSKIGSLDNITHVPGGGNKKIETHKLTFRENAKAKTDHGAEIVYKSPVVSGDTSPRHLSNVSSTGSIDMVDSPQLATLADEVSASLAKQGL

Target: SStau296-390 (human)
Test: immunoblot of transgenic mouse brain, interpretation

binding: binds
Substance: endogenous mouse tau (from UniProt P10637 2-341)
